The text below walks through data of patent publication US8569482B2, “Nanoparticulate probe for in vivo monitoring of tissue oxygenation” (priority 2003, dated 2013).

For this data set, the system named is bovine lung microvascular endothelial cells (BLMVECs). Particulars: room air.

Turning to “Lithium 5,9,14,18,23,27,32,36-octa-n-butoxy-2,3-naphthalocyanine [LiNc-BuO]”, the intracellular oxygen concentration worked out at 194 µM.
